The other results are listed elsewhere or left out. The main result of the screen is listed elsewhere. These columns were measured beside it and carry no call. Compounds called inactive in the main read-out are mostly missing here. Potencies come from curve fits of mixed quality, noted in brackets.
Experiment: qHTS Assay for Lipid Storage Modulators in Drosophila S3 Cells;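 for cell number change: cells counted by Cell Tracker Red CMTPX staining in the red channel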
Conditions: BODIPY lipid droplet fluorescence, 18-24 h; for cell number change: measured here: cell count max response, cells fed with added oleic acid
Procedure, shortened: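 Laser-scanning cytometry quantifies lipid droplet accumulation (500–530 nm total intensity; droplet/cell object ratio) in oleic acid-fed (400 uM added) Drosophila S3 cells treated with a concentration series. 20 uM Triacsin C defined 100% inhibition.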

[1] = measured here: lipid fluorescence (Fed channel) AC50, cells fed with added oleic acid
[2] = measured here: cell number channel AC50, cells fed with added oleic acid

## CCC(=O)N(Cc1ccco1)C1CC(=O)N(c2ccccc2)C1=O (stereo unspecified)
  cell number change: -0.355%
[1]
  AC50: 411 nM [falling, full curve, poor fit]

## CCOc1cc(-c2cc(-c3ccccc3)nc(N)c2C#N)ccc1O
  cell number change: -35.5%
[2]
  AC50: 29100 nM [falling, single point]

## O=C(CCc1ccc(S(=O)(=O)N2CCOCC2)cc1)Nc1nc(COc2ccccc2)cs1
  cell number change: -16.5%
[2]
  AC50: 231 nM [falling, full curve, poor fit]

## CN(CC(=O)Nc1ccc(F)cc1)C(=O)C1CCN(C(=O)Nc2ccccc2)CC1
  cell number change: -1.93%
[1]
  AC50: 25.9 nM [falling, full curve, poor fit]

## CC(O)CNc1nc2c(c(=O)n(Cc3ccc(Br)cc3)c(=O)n2C)n1C (stereo unspecified)
  cell number change: -33.4%
[2]
  AC50: 25900 nM [falling, single point]

## CCOC(=O)C1(C(F)(F)F)N=C(C(F)(F)F)Nc2ccccc21 (stereo unspecified)
  cell number change: 28.6%
[1]
  AC50: 6510 nM [rising, single point]

## Cc1ccc(C)c(S(=O)(=O)Nc2ccc(C(N)=O)cc2)c1
  cell number change: 15.6%
[1]
  AC50: 5170 nM [rising, single point]

## O=C(NCC(Cl)c1ccc2ccccc2c1)c1c(F)cccc1F (stereo unspecified)
  cell number change: -28.3%
[1]
  AC50: 92 nM [falling, partial curve, poor fit]

## COc1ccccc1-n1c(C)nc2cc(C(=O)NCc3ccc4c(c3)OCO4)ccc21
  cell number change: -15.3%
[1]
  AC50: 651 nM [falling, full curve, poor fit]

## COc1cccc(C(=O)NCCCNC(=O)c2cccc(OC)c2)c1
  cell number change: 7.3%
[1]
  AC50: 580 nM [rising, single point]

## CCOc1cccc(CN2CCC(n3nccc3NC(=O)C3CCCC3)CC2)c1
  cell number change: 28.4%

## COc1ccc(/C=N/Nc2cn[nH]c(=O)c2Cl)cc1
  cell number change: -8.08%
[2]
  AC50: 731 nM [falling, single point]

## O=C(OCC(=O)N1CCc2ccccc2C1)c1ccc(OC(F)F)cc1
  cell number change: 2.84%
[1]
  AC50: 58 nM [falling, full curve, poor fit]

## COc1ccc(-c2cc(C(=O)NCc3cccnc3)no2)cc1
  cell number change: 18.8%
[1]
  AC50: 16400 nM [rising, single point]

## O=C(COc1ccc2ccccc2c1)Nc1cccc(C(=O)Nc2ccccc2C(=O)O)c1
  cell number change: 2.82%
[1]
  AC50: 731 nM [rising, full curve, poor fit]

## Cc1nn(C/C(C#N)=N\O)c(C)[n+]1N
  cell number change: -36.3%
[1]
  AC50: 5170 nM [falling, full curve]

## COc1ccc(-c2cc3c(=O)n(CC(=O)NCc4ccc(C)cc4)ncn3n2)cc1
  cell number change: 15.9%
[1]
  AC50: 20600 nM [rising, single point]

## C=CCN(CC=C)C(=O)c1c(OC)cccc1OC
  cell number change: -6.82%
[1]
  AC50: 1030 nM [falling, full curve, poor fit]

## Cc1cc(/C=C2/C(=O)N(C)C(=S)N2C)ccc1N1CCCC1
[1]
  AC50: 3980 nM [falling, full curve]

## Cc1c(C(=O)N2CCCCC2)nn(-c2ccc(Cl)cc2)c(=O)c1C#N
  cell number change: -4.3%
[2]
  AC50: 130 nM [rising, full curve, poor fit]
[1]
  AC50: 130 nM [rising, full curve, poor fit]

## O=S(=O)(/N=C(\Sc1ccccc1)c1ccccc1)c1ccc(Cl)cc1
  cell number change: 20.4%

## CCOC(=O)NC(=O)/C(N=Nc1cccc(C(F)(F)F)c1)=C(\C)O
  cell number change: 1.33%
[2]
  AC50: 259 nM [falling, partial curve]
[1]
  AC50: 146 nM [falling, full curve]

## O=C(COC(=O)Cc1ccc(Cl)cc1)Nc1c(F)cccc1F
  cell number change: -36%
[2]
  AC50: 411 nM [falling, full curve, poor fit]

## CC(C)Oc1ccc(C(=O)N(CN2CCCC2=O)c2ccc(F)cc2)cc1
  cell number change: 39.7%
[2]
  AC50: 25900 nM [rising, single point]

## Cc1ncc([N+](=O)[O-])n1Cc1ccc(F)cc1
  cell number change: 39.7%
[2]
  AC50: 32600 nM [rising, single point]
[1]
  AC50: 2910 nM [falling, single point]

## COc1ccc(CCNC(=O)COc2ccc(S(=O)(=O)NCC(C)C)cc2Cl)cc1OC
  cell number change: -12.4%
[1]
  AC50: 10300 nM [falling, partial curve]

## CN1CCN(C(=O)CSc2nc(-c3cccs3)cc(-c3cccs3)c2C#N)CC1
  cell number change: -24%
[1]
  AC50: 16400 nM [falling, single point]

## Cc1cn([C@@H](CCCCN)C(=O)NCCCCCCCCCCC(=O)N2CCNCC2)nn1
  cell number change: -2.4%

## COc1ccccc1/C=C/C(=O)Nc1cccnc1
[1]
  AC50: 206 nM [falling, full curve, poor fit]

## O=C(CN1CCN(C(=O)C2CCCO2)CC1)Nc1c(Cl)cccc1Cl (stereo unspecified)
  cell number change: -15.3%
[2]
  AC50: 2910 nM [rising, single point]

## O=C(c1cccc(Br)c1)N1CCCC1
  cell number change: 20.1%
[1]
  AC50: 2310 nM [rising, full curve, poor fit]

## COc1cccc(CNC(=O)CCS(=O)(=O)Cc2ccc(C)cc2)c1
  cell number change: 9.73%
[1]
  AC50: 6510 nM [falling, single point]

## CN1CCCC(OC(=O)c2cc(Br)ccc2Cl)C1 (stereo unspecified)
  cell number change: 21.7%

## CCc1ccc(N(CC(=O)NC2CC2)S(=O)(=O)c2ccc(C)cc2)cc1
  cell number change: 17.4%
[1]
  AC50: 4.11 nM [rising, full curve, poor fit]

## COCCC(=O)N1CCCC(C(=O)c2ccc(C(F)(F)F)cc2)C1 (stereo unspecified)
  cell number change: -2.36%
[1]
  AC50: 1160 nM [rising, single point]

## CN(C)CCCN(C(=O)CCOc1ccccc1)c1nc2c(F)cccc2s1
  cell number change: -81.2%
[2]
  AC50: 29100 nM [falling, single point]
[1]
  AC50: 16400 nM [falling, partial curve]

## NNc1nc2c(Cl)cccc2s1
  cell number change: 350%
[2]
  AC50: 580 nM [rising, single point]

## COCCN(Cc1cc2cc(C)ccc2[nH]c1=O)S(=O)(=O)c1ccc(Cl)cc1
  cell number change: -14.1%

## CCOC(=O)c1sc(NC(=O)CSc2nc3c(cc2C#N)CCCCC3)c(C#N)c1C
  cell number change: -1.46%
[1]
  AC50: 146 nM [falling, full curve]

## Cc1cccc(OCCOC(=O)Nc2ccccc2)c1
  cell number change: 4.32%

— PubChem BioAssay AID2685 (National Center for Advancing Translational Sciences (NCATS), 2010)
